Taken from: PubChem BioAssay AID1259282 (Sanger Institute, 2017)
Screen: 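siRNA screen across the kinome seeking drug combinations lethal to colorectal cancer cells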 (primary screen). System: DIFI human colorectal cancer cell line. Reagent: siRNA pool against human genes. Conditions: anchor drug at a mild dose (BYL719 1 µM, cetuximab 5 µg/ml, trametinib 10 nM) or DMSO vehicle; exposure time not given. Measured: 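Viability relative to non-targeting pool wells, replicate mean, in DMSO or low-dose BYL719, cetuximab or trametinib; robust z-score without drug; synergy score per drug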. Direction: robust z-score, knock-down alone: higher = more viable cells than typical knock-down; viability, knock-down alone: higher = more viable cells. Units: viability, knock-down alone in fraction of control. Active means: 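Essential when the robust z-score of the knock-down without drug falls below -3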. Meaning of the calls: active = essential (knock-down alone, z below -3); inactive = not essential.
Shown is a random part of 794 reagents. 11 of them (1.4%) were called active. 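Calls flag knock-downs that lower viability without drug; drug synergy appears only in the synergy scores; exposure time not stated.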 A number with no mark means an inactive call. No viability above 1 is reported: the scale is capped. Not all columns of the deposit are shown. The record does not give: the amount of reagent, the time to read-out.

What did the screen give for ERN1?
robust z-score, knock-down alone: -1.25; viability, knock-down alone: 0.715

Which result is listed for NUCKS1?
robust z-score, knock-down alone: 0.715; viability, knock-down alone: 1

Which result is listed for CAMKV?
robust z-score, knock-down alone: -0.164; viability, knock-down alone: 0.872

For MAP3K8, how do the results read?
robust z-score, knock-down alone: 0.372; viability, knock-down alone: 0.95

Looked up above:
Under “robust z-score, knock-down alone”, NUCKS1 reads 0.715
Entry of MAP3K8 under “viability, knock-down alone”: 0.95

The results go on:
Which result is listed for MYLK3?
robust z-score, knock-down alone: -0.549; viability, knock-down alone: 0.816

What is on record for NUP62?
robust z-score, knock-down alone: 0.715; viability, knock-down alone: 1

How did the screen score PRKCD?
robust z-score, knock-down alone: -0.385; viability, knock-down alone: 0.84

For MPP3, how do the results read?
robust z-score, knock-down alone: -1.7; viability, knock-down alone: 0.65

Which result is listed for TBK1?
robust z-score, knock-down alone: 0.417; viability, knock-down alone: 0.957

For MAK, what was measured?
robust z-score, knock-down alone: 0.362; viability, knock-down alone: 0.949

With NEK3, what was measured?
robust z-score, knock-down alone: -1.18; viability, knock-down alone: 0.725

How did the screen score EIF2AK2?
robust z-score, knock-down alone: 0.715; viability, knock-down alone: 1
